From PMC10484675

Chains of the proteins cited; added tags and fusions are not shown.
UniProt Q06609: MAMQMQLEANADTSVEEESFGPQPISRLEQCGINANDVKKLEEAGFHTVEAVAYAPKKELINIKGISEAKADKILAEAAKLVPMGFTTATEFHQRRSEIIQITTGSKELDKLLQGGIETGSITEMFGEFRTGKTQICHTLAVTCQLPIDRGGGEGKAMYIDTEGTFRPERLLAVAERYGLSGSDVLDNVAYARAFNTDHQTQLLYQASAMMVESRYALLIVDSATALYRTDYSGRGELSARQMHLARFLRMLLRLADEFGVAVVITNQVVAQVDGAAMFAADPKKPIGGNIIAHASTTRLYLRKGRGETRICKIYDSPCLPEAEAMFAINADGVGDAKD

Key:
[1] = target: T1, SFB-tagged wild-type FIGNL1 (human) (human) (UniProt Q6PIW4); assay: affinity purification with mass spectrometry; Supplementary Figure S7A, called 'anti-FIGNL1 immunoprecipitant' in the text; taken as the tandem affinity purification of SFB-tagged human FIGNL1 from stable HEK293T cells told in the methods (4 mM HU 3 h, NETN buffer with benzonase)
T1 sequence: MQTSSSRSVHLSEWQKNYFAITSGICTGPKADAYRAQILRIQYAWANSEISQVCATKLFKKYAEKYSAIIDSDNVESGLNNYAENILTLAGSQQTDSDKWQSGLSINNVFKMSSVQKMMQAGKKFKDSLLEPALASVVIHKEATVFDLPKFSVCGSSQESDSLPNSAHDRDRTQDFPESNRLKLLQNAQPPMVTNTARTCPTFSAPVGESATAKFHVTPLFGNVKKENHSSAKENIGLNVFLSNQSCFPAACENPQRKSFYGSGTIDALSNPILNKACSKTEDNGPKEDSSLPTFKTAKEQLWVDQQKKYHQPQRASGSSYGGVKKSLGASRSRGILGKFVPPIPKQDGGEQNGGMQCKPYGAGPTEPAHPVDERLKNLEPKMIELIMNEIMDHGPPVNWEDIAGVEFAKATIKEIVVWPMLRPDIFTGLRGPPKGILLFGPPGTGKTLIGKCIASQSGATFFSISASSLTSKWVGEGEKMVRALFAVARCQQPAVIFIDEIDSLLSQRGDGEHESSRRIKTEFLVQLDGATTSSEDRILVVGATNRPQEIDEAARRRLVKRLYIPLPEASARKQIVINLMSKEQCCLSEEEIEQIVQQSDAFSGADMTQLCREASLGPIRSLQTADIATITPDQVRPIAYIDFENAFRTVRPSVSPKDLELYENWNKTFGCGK

[2] = target: T2, SFB-tagged wild-type FLIP (human) (human) (UniProt Q9NSG2); assay: affinity purification with mass spectrometry; tandem affinity purification (streptavidin-sepharose, biotin elution, S-protein beads) of SFB-tagged human FLIP from stable HEK293T cells treated with 4 mM HU for 3 h; NETN buffer with benzonase; bands analysed by mass spectrometry
T2 sequence: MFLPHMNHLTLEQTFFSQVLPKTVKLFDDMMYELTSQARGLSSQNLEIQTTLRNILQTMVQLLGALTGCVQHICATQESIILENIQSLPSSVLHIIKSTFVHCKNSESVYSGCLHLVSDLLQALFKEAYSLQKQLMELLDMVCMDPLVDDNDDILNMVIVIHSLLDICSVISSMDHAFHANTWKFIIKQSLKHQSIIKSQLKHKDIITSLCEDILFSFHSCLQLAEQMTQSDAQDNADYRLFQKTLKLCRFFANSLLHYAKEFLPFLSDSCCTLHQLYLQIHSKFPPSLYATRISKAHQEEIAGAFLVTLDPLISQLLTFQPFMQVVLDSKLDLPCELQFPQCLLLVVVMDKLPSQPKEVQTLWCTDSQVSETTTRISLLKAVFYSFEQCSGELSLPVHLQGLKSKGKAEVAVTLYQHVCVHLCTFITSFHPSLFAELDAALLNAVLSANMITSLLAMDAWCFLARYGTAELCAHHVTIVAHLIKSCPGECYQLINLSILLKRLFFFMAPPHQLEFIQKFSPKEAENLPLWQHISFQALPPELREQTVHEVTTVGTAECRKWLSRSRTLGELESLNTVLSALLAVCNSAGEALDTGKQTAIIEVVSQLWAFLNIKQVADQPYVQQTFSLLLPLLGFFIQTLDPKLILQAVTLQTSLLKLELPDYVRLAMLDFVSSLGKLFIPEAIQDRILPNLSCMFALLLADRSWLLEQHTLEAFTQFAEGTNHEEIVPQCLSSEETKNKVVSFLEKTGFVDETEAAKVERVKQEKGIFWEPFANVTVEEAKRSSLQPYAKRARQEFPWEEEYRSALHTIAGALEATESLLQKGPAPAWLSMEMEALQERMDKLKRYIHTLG

[3] = target: T1, SFB-tagged wild-type FIGNL1 (human) (human); assay: affinity purification with mass spectrometry; Supplementary Figure S7A, called 'anti-FIGNL1 immunoprecipitant' in the text; taken as the tandem affinity purification of SFB-tagged human FIGNL1 from stable HEK293T cells told in the methods (4 mM HU 3 h, NETN buffer with benzonase); remark: listed apart in the source

binding [1]: binds
Molecule: RAD51 (endogenous, human HEK293T cells) (from UniProt Q06609 1-339)

binding [2]: binds
B1: FIGNL1 (endogenous, human HEK293T cells) (protein, UniProt Q6PIW4 1-674)
chain: MQTSSSRSVHLSEWQKNYFAITSGICTGPKADAYRAQILRIQYAWANSEISQVCATKLFKKYAEKYSAIIDSDNVESGLNNYAENILTLAGSQQTDSDKWQSGLSINNVFKMSSVQKMMQAGKKFKDSLLEPALASVVIHKEATVFDLPKFSVCGSSQESDSLPNSAHDRDRTQDFPESNRLKLLQNAQPPMVTNTARTCPTFSAPVGESATAKFHVTPLFGNVKKENHSSAKENIGLNVFLSNQSCFPAACENPQRKSFYGSGTIDALSNPILNKACSKTEDNGPKEDSSLPTFKTAKEQLWVDQQKKYHQPQRASGSSYGGVKKSLGASRSRGILGKFVPPIPKQDGGEQNGGMQCKPYGAGPTEPAHPVDERLKNLEPKMIELIMNEIMDHGPPVNWEDIAGVEFAKATIKEIVVWPMLRPDIFTGLRGPPKGILLFGPPGTGKTLIGKCIASQSGATFFSISASSLTSKWVGEGEKMVRALFAVARCQQPAVIFIDEIDSLLSQRGDGEHESSRRIKTEFLVQLDGATTSSEDRILVVGATNRPQEIDEAARRRLVKRLYIPLPEASARKQIVINLMSKEQCCLSEEEIEQIVQQSDAFSGADMTQLCREASLGPIRSLQTADIATITPDQVRPIAYIDFENAFRTVRPSVSPKDLELYENWNKTFGCGK

binding [3]: binds
B2: FLIP (endogenous, human HEK293T cells) (protein, UniProt Q9NSG2 1-853)
chain: MFLPHMNHLTLEQTFFSQVLPKTVKLFDDMMYELTSQARGLSSQNLEIQTTLRNILQTMVQLLGALTGCVQHICATQESIILENIQSLPSSVLHIIKSTFVHCKNSESVYSGCLHLVSDLLQALFKEAYSLQKQLMELLDMVCMDPLVDDNDDILNMVIVIHSLLDICSVISSMDHAFHANTWKFIIKQSLKHQSIIKSQLKHKDIITSLCEDILFSFHSCLQLAEQMTQSDAQDNADYRLFQKTLKLCRFFANSLLHYAKEFLPFLSDSCCTLHQLYLQIHSKFPPSLYATRISKAHQEEIAGAFLVTLDPLISQLLTFQPFMQVVLDSKLDLPCELQFPQCLLLVVVMDKLPSQPKEVQTLWCTDSQVSETTTRISLLKAVFYSFEQCSGELSLPVHLQGLKSKGKAEVAVTLYQHVCVHLCTFITSFHPSLFAELDAALLNAVLSANMITSLLAMDAWCFLARYGTAELCAHHVTIVAHLIKSCPGECYQLINLSILLKRLFFFMAPPHQLEFIQKFSPKEAENLPLWQHISFQALPPELREQTVHEVTTVGTAECRKWLSRSRTLGELESLNTVLSALLAVCNSAGEALDTGKQTAIIEVVSQLWAFLNIKQVADQPYVQQTFSLLLPLLGFFIQTLDPKLILQAVTLQTSLLKLELPDYVRLAMLDFVSSLGKLFIPEAIQDRILPNLSCMFALLLADRSWLLEQHTLEAFTQFAEGTNHEEIVPQCLSSEETKNKVVSFLEKTGFVDETEAAKVERVKQEKGIFWEPFANVTVEEAKRSSLQPYAKRARQEFPWEEEYRSALHTIAGALEATESLLQKGPAPAWLSMEMEALQERMDKLKRYIHTLG

Read-outs that look alike come from different tables or passages of the source. These are yes or no findings as the source states them, for the method shown. In cells and extracts the contact can be indirect. A yes stands for co-enrichment or nearness to the bait. Other partners may have been found. Sequences can lack the tags named with a protein. One block for each molecule: values may come before it.
